Measured values as given in PubChem BioAssay AID328 (DTP/NCI, 2004).
The list is a part of this screen's results and no random one: it is rich in T/C values a quarter to a half above the control, in often repeated tests (any T/C) and in doses without a T/C. Further doses and runs are listed elsewhere. T/C is the treated group as % of the vehicle group. Some entries give survivors of the animals treated and no T/C: the source files T/C as zero there, which appears to mark a toxic dose or a test without result, not a measured value. Some doses without a T/C left all or most animals alive at the check, yet need not have been tolerated: survival well below the control is almost never listed, so the zero probably covers shortened survival too. Survivors were counted at the toxicity check, usually on the fifth day, unless a day is given; later deaths do not show. Schedule codes are those of the source, read here as Q, the interval in days (D) or hours (H), X, the number of doses. Where survival is the endpoint, the PubChem record calls one and a half times the control and up active, and a quarter to a half above the control has no call in these data; cut-offs in other NCI protocols can differ.

Tested on: BDF1 mice, P388 leukemia ip, median survival T/C
Test: NCI In Vivo Anticancer Drug Screen. Data for tumor model P388 Leukemia (intraperitoneal) in B6D2F1 (BDF1) mice
Settings: higher T/C = longer survival
Procedure, shortened: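 T/C = treated-group survival ÷ vehicle-control survival; tumour transplanted into mice before dosing.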

[1] = T/C endpoint: median survival time, dose: 200.0 mg/kg/injection, schedule: Q01DX009 (ip), vehicle: saline with Tween-80

For `CCN(CC)c1ccc(N)cc1`, the survivor count (T/C endpoint: median survival time, dose: 50.0 mg/kg/injection, schedule: Q01DX009 (ip), vehicle: other) was 0 of 6, the survivor count (T/C endpoint: median survival time, dose: 100.0 mg/kg/injection, schedule: Q01DX009 (ip), vehicle: other) was 0 of 6 and the survivor count (T/C endpoint: median survival time, dose: 200.0 mg/kg/injection, schedule: Q01DX009 (ip), vehicle: other) was 0 of 6. For the same compound, the survivor count (T/C endpoint: median survival time, dose: 400.0 mg/kg/injection, schedule: Q01DX009 (ip), vehicle: other) was 0 of 6.
`O=C(N[C@H](CO)[C@H](O)c1ccc([N+](=O)[O-])cc1)C(Cl)Cl` was tested, and the T/C [1] was 136 % of control and the T/C (T/C endpoint: median survival time, dose: 400.0 mg/kg/injection, schedule: Q01DX009 (ip), vehicle: saline with Tween-80) was 131 % of control.
For `CC1(C)N=C(N)N=C(N)N1c1cccc(OCCOc2ccc([N+](=O)[O-])cc2)c1`, the T/C (T/C endpoint: median survival time, dose: 200.0 mg/kg/injection, schedule: Q01DX009 (ip), vehicle: saline sonified) was 145 % of control.
With `O=C(O)c1ccc(CCCC2CCCC2)cc1` the survivor count (T/C endpoint: median survival time, dose: 400.0 mg/kg/injection, schedule: Q04DX003 (ip), vehicle: Klucel (hydroxypropylcellulose) (HPC)) was 4 of 6.
With `CCCCNC(C)(C)C(SSSC(C)=O)c1ccco1` (stereo not drawn) the survivor count (T/C endpoint: median survival time, dose: 6.25 mg/kg/injection, schedule: Q01DX009 (ip), vehicle: saline with Tween-80) was 6 of 6, the survivor count (T/C endpoint: median survival time, dose: 12.5 mg/kg/injection, schedule: Q01DX009 (ip), vehicle: saline with Tween-80) was 6 of 6 and the survivor count (T/C endpoint: median survival time, dose: 100.0 mg/kg/injection, schedule: Q01DX009 (ip), vehicle: saline with Tween-80) was 4 of 6.
`Cc1cc(N(C)C)c2ccc3cc4ccccc4cc3c2n1` was tested, and the T/C [1] was 128 % of control and the survivor count [1] was 3 of 6.
In the case of `N=C(N)N1CCNc2ccccc2C1`, the survivor count (T/C endpoint: median survival time, dose: 200.0 mg/kg/injection, schedule: Q04DX003 (ip), vehicle: saline with Tween-80) is reported as 4 of 6 and the survivor count (T/C endpoint: median survival time, dose: 400.0 mg/kg/injection, schedule: Q04DX003 (ip), vehicle: saline with Tween-80) is reported as 1 of 6.
With `CC(=O)OC(=O)C(Cc1ccccc1)NC(=O)C(N)CCCN=C(N)N` (stereo not drawn) the survivor count (T/C endpoint: median survival time, dose: 200.0 mg/kg/injection, schedule: Q01DX005 (ip), vehicle: saline with Tween-80) was 0 of 6.
With `CCCCNC(C)(C)CO` the survivor count (T/C endpoint: median survival time, dose: 200.0 mg/kg/injection, schedule: Q04DX003 (ip), vehicle: saline) was 0 of 6 and the survivor count (T/C endpoint: median survival time, dose: 400.0 mg/kg/injection, schedule: Q04DX003 (ip), vehicle: saline) was 0 of 6.
`C/C=C/c1cc2c(c(=O)o1)C(=O)[C@@H](O)[C@H](C)O2` was tested, and the T/C (T/C endpoint: mean survival time, dose: 50.0 mg/kg/injection, schedule: Q01DX010 (ip), vehicle: carboxymethylcellulose (CMC)) was 133 % of control, the T/C (T/C endpoint: mean survival time, dose: 100.0 mg/kg/injection, schedule: Q01DX010 (ip), vehicle: carboxymethylcellulose (CMC)) was 139 % of control and the survivor count (T/C endpoint: mean survival time, dose: 200.0 mg/kg/injection, schedule: Q01DX010 (ip), vehicle: carboxymethylcellulose (CMC)) was 0 of 6. The T/C (T/C endpoint: median survival time, dose: 16.0 mg/kg/injection, schedule: Q01DX010 (ip), vehicle: other) was 130 % of control and the survivor count (T/C endpoint: median survival time, dose: 200.0 mg/kg/injection, schedule: Q01DX010 (ip), vehicle: other) was 0 of 6.
